Some of the results follow.
What was measured:
Assay in all cases: log2 fold change, soluble protein after heating vs DMSO (PISA); higher = thermal stabilisation; K562 lysate, 10 uM; active = over 0.2 and 3.5 SD of the protein, either way, in both replicates (recomputed)
[1] = compound: CC[C@@H]1C(=O)N(C)c2cnc(Nc3ccc(C(=O)NC4CCN(C)CC4)cc3OC)nc2N1C1CCCC1
Summary of the method: (§1)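 Quantification was by TMTpro 16plex LC-MS/MS with equalised channel sums, applied to the supernatant after 21,000xg for 90 min. Samples were crude K562 extract at 1 mg/mL protein in PBS pH 7.4 with 1 mM MgCl2, treated with 10 μM compound for 30 min, heated for 3 min across 48°C-58°C, pooled and brought to 0.5% NP-40 at 4°C. Values are log-two fold changes in thermal stability relative to solvent controls, from duplicates.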

Sequences of proteins named here, by UniProt entry; tags and fusion partners are left off. A change or cut given only in a name is not applied to a line headed by its entry.
UniProt Q96CG3: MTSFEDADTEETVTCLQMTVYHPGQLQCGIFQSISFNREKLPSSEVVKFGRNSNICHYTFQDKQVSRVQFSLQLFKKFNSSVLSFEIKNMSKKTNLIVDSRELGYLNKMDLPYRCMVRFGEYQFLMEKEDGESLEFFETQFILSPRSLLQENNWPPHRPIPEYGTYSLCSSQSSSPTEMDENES
UniProt Q9BSA9: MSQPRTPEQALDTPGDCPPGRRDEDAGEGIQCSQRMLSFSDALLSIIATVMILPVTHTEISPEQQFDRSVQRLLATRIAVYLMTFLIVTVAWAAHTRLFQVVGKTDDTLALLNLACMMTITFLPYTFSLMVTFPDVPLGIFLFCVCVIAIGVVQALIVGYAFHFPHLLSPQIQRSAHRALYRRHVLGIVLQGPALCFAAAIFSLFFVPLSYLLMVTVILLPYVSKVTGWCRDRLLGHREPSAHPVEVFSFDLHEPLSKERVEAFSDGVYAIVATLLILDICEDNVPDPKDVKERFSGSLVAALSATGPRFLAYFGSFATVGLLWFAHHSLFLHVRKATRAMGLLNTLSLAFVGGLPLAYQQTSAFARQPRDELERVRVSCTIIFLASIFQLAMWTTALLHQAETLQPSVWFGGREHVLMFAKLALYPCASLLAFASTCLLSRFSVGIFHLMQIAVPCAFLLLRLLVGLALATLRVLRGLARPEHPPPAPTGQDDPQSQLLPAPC
UniProt Q24JP5: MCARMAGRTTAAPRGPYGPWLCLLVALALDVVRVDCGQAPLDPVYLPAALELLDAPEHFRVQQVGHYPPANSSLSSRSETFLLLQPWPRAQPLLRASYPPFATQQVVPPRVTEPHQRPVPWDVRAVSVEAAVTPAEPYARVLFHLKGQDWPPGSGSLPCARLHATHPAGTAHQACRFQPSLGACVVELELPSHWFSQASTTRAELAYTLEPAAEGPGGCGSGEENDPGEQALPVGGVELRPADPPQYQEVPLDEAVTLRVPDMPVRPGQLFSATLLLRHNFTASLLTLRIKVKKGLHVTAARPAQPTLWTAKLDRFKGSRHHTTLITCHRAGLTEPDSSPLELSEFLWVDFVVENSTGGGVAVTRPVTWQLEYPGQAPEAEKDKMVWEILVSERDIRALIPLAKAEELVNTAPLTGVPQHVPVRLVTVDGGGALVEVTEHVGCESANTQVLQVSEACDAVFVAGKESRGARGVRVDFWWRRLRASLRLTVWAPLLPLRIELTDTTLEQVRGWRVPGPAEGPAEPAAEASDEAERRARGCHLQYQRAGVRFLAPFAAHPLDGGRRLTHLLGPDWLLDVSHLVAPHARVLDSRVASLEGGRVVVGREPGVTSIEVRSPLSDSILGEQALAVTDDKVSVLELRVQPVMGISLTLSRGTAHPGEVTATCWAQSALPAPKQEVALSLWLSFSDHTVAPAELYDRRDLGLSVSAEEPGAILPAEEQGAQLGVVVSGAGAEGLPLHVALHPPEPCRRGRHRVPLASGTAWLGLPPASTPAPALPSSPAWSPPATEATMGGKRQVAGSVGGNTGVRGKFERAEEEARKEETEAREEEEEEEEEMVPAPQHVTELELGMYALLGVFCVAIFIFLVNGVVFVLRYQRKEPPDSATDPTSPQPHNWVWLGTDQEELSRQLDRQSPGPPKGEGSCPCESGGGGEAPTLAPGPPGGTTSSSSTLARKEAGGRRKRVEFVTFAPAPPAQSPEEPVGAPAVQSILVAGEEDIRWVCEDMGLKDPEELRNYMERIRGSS
UniProt Q15583: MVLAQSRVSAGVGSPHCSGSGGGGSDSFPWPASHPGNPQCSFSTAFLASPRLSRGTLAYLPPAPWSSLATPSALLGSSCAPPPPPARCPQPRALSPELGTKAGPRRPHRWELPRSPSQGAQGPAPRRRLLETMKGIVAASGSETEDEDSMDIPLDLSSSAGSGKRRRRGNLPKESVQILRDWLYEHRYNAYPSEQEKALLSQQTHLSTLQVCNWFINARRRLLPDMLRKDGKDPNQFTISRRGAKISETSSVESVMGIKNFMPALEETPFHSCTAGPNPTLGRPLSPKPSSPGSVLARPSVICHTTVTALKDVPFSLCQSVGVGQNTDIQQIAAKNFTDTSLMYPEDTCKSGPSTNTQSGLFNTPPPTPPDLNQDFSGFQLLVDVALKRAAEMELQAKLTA
UniProt Q9NVA4: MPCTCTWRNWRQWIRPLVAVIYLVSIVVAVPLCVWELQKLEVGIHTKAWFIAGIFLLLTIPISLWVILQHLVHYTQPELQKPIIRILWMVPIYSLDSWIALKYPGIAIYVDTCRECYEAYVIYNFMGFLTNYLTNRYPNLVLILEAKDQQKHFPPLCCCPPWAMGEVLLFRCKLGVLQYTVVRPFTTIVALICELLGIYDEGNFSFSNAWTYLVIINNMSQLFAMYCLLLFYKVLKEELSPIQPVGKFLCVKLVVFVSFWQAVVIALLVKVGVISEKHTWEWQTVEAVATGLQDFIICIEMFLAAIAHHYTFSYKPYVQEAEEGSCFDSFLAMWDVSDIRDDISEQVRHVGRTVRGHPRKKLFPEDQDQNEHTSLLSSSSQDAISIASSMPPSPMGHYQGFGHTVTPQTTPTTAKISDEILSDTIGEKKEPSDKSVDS
UniProt P37173, whole entry, looked up: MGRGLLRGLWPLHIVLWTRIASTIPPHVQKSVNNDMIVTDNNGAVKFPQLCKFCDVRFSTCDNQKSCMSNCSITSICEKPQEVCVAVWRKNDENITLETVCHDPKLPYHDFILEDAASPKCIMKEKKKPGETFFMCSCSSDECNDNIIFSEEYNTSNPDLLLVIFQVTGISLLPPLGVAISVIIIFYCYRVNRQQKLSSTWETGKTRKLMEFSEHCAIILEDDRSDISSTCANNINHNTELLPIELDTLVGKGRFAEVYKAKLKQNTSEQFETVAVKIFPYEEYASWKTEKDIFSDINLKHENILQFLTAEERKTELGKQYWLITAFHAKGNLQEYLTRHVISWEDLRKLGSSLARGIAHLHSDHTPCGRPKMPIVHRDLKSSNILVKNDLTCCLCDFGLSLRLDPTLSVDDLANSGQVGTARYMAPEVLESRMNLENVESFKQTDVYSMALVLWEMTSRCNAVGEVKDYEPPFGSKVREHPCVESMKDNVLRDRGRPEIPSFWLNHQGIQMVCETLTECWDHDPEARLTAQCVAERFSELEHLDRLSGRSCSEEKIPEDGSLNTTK
UniProt Q96B96: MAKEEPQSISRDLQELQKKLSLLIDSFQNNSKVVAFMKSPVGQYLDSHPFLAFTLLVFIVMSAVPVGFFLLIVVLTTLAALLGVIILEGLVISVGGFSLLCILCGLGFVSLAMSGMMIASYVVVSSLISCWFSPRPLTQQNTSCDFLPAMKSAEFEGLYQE
UniProt Q7Z402: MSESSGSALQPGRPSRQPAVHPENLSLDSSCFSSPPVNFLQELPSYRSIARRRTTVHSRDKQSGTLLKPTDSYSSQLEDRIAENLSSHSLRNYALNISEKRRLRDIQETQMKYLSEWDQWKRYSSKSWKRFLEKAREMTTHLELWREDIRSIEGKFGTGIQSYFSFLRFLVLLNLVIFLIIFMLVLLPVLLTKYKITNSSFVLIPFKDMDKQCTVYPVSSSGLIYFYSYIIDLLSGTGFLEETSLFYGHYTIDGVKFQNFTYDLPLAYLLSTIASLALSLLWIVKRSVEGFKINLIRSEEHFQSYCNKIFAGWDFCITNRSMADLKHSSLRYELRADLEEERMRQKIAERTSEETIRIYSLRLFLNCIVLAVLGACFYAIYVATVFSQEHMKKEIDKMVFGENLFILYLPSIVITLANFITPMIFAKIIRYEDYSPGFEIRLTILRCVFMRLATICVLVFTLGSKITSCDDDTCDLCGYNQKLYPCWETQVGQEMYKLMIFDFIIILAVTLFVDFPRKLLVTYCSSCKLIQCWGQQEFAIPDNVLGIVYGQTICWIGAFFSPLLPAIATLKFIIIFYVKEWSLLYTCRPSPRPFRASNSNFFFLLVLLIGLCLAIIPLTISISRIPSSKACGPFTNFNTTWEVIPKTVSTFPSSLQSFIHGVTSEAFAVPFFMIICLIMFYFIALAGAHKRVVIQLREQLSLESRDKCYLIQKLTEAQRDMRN
UniProt Q9H1K6: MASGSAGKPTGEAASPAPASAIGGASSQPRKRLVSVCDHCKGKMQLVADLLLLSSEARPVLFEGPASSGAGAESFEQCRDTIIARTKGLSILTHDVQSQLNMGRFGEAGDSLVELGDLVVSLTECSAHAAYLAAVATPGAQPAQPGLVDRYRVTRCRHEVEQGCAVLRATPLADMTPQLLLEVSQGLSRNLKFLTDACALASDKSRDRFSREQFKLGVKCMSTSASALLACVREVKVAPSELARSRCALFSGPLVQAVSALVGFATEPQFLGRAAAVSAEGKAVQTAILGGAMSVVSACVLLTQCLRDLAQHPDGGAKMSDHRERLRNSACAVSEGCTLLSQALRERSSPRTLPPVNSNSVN
UniProt Q8WTV1: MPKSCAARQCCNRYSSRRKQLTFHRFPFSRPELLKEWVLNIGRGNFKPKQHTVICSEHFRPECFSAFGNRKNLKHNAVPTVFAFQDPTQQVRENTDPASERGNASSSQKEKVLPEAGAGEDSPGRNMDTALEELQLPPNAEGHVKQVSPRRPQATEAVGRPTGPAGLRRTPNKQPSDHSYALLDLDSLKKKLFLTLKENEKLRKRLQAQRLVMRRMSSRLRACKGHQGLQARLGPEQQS
UniProt Q7Z2Z1: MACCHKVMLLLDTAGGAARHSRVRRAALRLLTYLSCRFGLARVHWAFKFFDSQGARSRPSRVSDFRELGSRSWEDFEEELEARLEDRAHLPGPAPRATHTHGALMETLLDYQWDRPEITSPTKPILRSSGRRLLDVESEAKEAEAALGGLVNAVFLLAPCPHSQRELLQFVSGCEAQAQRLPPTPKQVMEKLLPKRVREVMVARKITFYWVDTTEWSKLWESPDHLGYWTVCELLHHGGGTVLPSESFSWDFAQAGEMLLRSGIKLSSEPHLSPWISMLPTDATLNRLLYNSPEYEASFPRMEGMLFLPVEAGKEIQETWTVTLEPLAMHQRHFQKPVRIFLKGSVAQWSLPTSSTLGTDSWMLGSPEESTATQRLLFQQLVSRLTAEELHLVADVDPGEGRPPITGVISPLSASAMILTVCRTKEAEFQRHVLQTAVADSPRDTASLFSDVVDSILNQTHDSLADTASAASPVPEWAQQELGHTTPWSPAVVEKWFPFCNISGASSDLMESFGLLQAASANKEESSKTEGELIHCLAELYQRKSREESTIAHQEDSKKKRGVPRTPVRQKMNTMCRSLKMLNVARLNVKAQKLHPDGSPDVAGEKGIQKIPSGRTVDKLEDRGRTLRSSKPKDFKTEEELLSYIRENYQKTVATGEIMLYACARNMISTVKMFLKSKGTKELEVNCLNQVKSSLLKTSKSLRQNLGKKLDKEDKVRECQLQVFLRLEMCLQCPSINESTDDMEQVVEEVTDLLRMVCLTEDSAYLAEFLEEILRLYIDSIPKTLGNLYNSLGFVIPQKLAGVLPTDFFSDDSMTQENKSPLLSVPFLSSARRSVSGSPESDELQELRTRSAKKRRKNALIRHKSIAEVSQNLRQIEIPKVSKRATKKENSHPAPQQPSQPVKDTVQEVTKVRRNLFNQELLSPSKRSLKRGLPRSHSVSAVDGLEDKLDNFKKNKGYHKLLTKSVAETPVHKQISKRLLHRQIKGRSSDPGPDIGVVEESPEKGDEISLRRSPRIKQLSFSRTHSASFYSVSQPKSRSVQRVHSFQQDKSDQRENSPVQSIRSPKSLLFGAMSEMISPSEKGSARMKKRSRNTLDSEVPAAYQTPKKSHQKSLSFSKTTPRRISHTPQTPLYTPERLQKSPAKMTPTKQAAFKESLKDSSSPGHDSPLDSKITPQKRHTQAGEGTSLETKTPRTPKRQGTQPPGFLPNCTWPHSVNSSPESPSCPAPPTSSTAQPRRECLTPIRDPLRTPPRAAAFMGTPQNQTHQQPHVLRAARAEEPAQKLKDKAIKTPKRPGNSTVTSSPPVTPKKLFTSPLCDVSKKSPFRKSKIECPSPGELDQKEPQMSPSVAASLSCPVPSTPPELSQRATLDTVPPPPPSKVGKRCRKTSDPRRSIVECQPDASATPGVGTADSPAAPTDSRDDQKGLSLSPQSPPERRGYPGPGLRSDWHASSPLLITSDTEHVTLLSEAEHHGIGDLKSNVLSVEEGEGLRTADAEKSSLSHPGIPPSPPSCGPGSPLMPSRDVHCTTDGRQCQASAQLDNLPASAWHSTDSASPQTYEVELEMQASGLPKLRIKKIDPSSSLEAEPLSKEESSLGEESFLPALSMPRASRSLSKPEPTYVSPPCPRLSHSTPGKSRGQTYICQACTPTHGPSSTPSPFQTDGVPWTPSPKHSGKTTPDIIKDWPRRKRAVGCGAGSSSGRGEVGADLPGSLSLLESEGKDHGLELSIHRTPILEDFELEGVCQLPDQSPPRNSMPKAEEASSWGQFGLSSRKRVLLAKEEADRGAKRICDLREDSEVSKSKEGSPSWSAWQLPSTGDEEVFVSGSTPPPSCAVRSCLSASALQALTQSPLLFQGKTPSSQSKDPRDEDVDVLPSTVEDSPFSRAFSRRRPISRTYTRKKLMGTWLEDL

[2] = compound: CCn1c(C(=O)N(C2CC2)C2CC2)cc2c3c(ncn3C)c(Nc3cc(C)n(C)n3)nc21
Summary of the method: as §1

[3] = compound: CCn1cc(-c2ccnc3[nH]c(-c4cccc(CN(C)C)c4)cc23)c(-c2ccc(NC(=O)N(C)C)cc2)n1
Summary of the method: as §1

[4] = compound: CN1CCC(CNc2ccc3ncc(-c4cccc(OC(F)(F)F)c4)n3n2)CC1
Summary of the method: as §1

sotrastaurin = compound: CN1CCN(c2nc(C3=C(c4c[nH]c5ccccc45)C(=O)NC3=O)c3ccccc3n2)CC1 [sotrastaurin]
Summary of the method: as §1

barasertib = compound: CCN(CCCOc1ccc2c(Nc3cc(CC(=O)Nc4cccc(F)c4)[nH]n3)ncnc2c1)CCOP(=O)(O)O [barasertib]
Summary of the method: as §1

vemurafenib = compound: CCCS(=O)(=O)Nc1ccc(F)c(C(=O)c2c[nH]c3ncc(-c4ccc(Cl)cc4)cc23)c1F [vemurafenib]
Summary of the method: as §1

[5] = compound: CCCS(=O)(=O)Nc1ccc(F)c(C(=O)c2c[nH]c3ncc(Cl)cc23)c1F
Summary of the method: as §1

volasertib = compound: CC[C@@H]1C(=O)N(C)c2cnc(Nc3ccc(C(=O)N[C@H]4CC[C@H](N5CCN(CC6CC6)CC5)CC4)cc3OC)nc2N1C(C)C [volasertib]
Summary of the method: as §1

saracatinib = compound: CN1CCN(CCOc2cc(OC3CCOCC3)c3c(Nc4c(Cl)ccc5c4OCO5)ncnc3c2)CC1 [saracatinib]
Summary of the method: as §1

Measured: log2 fold change

TIFA (UniProt Q96CG3)
inactive: [1] -0.007 | [2] -0.049 | [3] -0.08 | [4] 0.086 | sotrastaurin 0.08

TMEM175 (UniProt Q9BSA9)
inactive: barasertib 0.057 | [2] -0.085 | [3] -0.035 | [4] 0.07 | sotrastaurin -0.145

TMEM183B (UniProt Q1AE95)
inactive: vemurafenib 0.297 | [2] 0.06 | [3] -0.46 | [4] -0.031

TMEM132A isoform 2 (UniProt Q24JP5)
inactive: [5] 0.239 | [1] -0.078 | volasertib -0.144 | [2] 0.028 | [3] 0.055 | [4] 0.3 | sotrastaurin 0.044

TM7SF2 (UniProt O76062)
inactive: [3] 0.02 | [4] 0.051 | sotrastaurin 0.31

TKT, A0A0B4J1R6
inactive: [5] -0.032 | volasertib 0.033 | [2] -0.111 | [3] -0.276 | [4] 0.344 | saracatinib 0.067 | sotrastaurin 0.183

TMEM101 (UniProt Q96IK0)
inactive: [5] -0.069 | barasertib 0.019 | [1] 0.024 | volasertib -0.046 | [2] -0.029 | [3] -0.063 | [4] -0.066 | saracatinib 0.033 | sotrastaurin -0.107

TJP1 (UniProt H0Y3R8)
inactive: [3] 0.048 | [4] -0.16

TMEM154 (UniProt Q6P9G4)
inactive: [1] 0.022 | [2] -0.08 | saracatinib -0.036 | sotrastaurin 0.116

TMEM131 (UniProt Q92545)
inactive: [3] 0.115 | [4] 0.04

TIGAR (UniProt Q9NQ88)
inactive: vemurafenib -0.04 | [1] 0.073 | [2] -0.029 | saracatinib -0.011 | sotrastaurin 0.014

TMED3 (UniProt Q9Y3Q3)
inactive: [5] -0.007 | barasertib -0.232 | volasertib -0.035 | [2] 0.098 | [3] -0.041 | [4] -0.071 | sotrastaurin 0.05

TGIF1 (UniProt Q15583)
inactive: sotrastaurin 0.054

TKTL1 (UniProt P51854)
inactive: [1] 0.054 | [3] 0.192 | [4] -0.021 | saracatinib -0.027

TMEM102 (UniProt Q8N9M5)
inactive: vemurafenib -0.013 | [1] -0.055 | [2] -0.04 | sotrastaurin 0.097

TMEM184B (UniProt Q9Y519)
inactive: [2] -0.006 | saracatinib 0.018 | sotrastaurin 0.018

TMEM138 (UniProt Q9NPI0)
inactive: vemurafenib 0.048 | [1] -0.022 | saracatinib 0.033

TMEM129
inactive: [3] 0.004 | [4] 0.006

TGM2 (UniProt A2A299)
inactive: [5] 0.051 | volasertib -0.114

TMCC1 (UniProt O94876)
inactive: vemurafenib 0.048 | [1] 0.199 | [3] -0.103 | [4] 0.081 | saracatinib 0.075

TMEM184C (UniProt Q9NVA4)
inactive: [5] -0.008 | barasertib -0.19 | [1] 0.02 | volasertib 0.02 | [2] -0.062 | saracatinib 0.043 | sotrastaurin 0.006

TLE3 isoform 5 (UniProt Q04726)
inactive: [5] 0.037 | barasertib -0.176 | [1] 0.026 | volasertib -0.025 | [2] 0.034 | [3] 0.101 | [4] 0.178 | saracatinib 0.049 | sotrastaurin 0.015

THBS1 (UniProt P07996)
inactive: vemurafenib -0.079 | [3] -0.014 | [4] -0.162 | saracatinib -0.052 | sotrastaurin 0.02

TGFBR2 isoform 2 (UniProt P37173)
inactive: [1] -0.159 | [2] 0.007 | saracatinib 0.086

TMEM159 isoform 2 (UniProt Q96B96)
inactive: [5] 0.061 | barasertib 0.035 | [1] 0.027 | volasertib 0.089 | [2] 0.085 | [3] -0.024 | [4] -0.064 | saracatinib 0.178 | sotrastaurin 0.02

TMC7 (UniProt Q7Z402)
inactive: [3] -0.021 | [4] 0.06

TMEM147 (UniProt Q9BVK8)
inactive: [5] 0.069 | barasertib 0.003 | [1] -0.094 | volasertib -0.044 | [2] 0.028 | [3] -0.125 | [4] 0.04 | sotrastaurin 0.019

TLE3 (UniProt H0YL70)
inactive: saracatinib 0.152

Reprinted from the results shown (eleven entries):
TMEM138 (UniProt Q9NPI0)
inactive: vemurafenib 0.048 | [1] -0.022 | saracatinib 0.033

TMEM129
inactive: [3] 0.004 | [4] 0.006

TGM2 (UniProt A2A299)
inactive: [5] 0.051 | volasertib -0.114

TMCC1 (UniProt O94876)
inactive: vemurafenib 0.048 | [1] 0.199 | [3] -0.103 | [4] 0.081 | saracatinib 0.075

TMEM184C (UniProt Q9NVA4)
inactive: [5] -0.008 | barasertib -0.19 | [1] 0.02 | volasertib 0.02 | [2] -0.062 | saracatinib 0.043 | sotrastaurin 0.006

TLE3 isoform 5 (UniProt Q04726)
inactive: [5] 0.037 | barasertib -0.176 | [1] 0.026 | volasertib -0.025 | [2] 0.034 | [3] 0.101 | [4] 0.178 | saracatinib 0.049 | sotrastaurin 0.015

THBS1 (UniProt P07996)
inactive: vemurafenib -0.079 | [3] -0.014 | [4] -0.162 | saracatinib -0.052 | sotrastaurin 0.02

TGFBR2 isoform 2 (UniProt P37173)
inactive: [1] -0.159 | [2] 0.007 | saracatinib 0.086

TMEM159 isoform 2 (UniProt Q96B96)
inactive: [5] 0.061 | barasertib 0.035 | [1] 0.027 | volasertib 0.089 | [2] 0.085 | [3] -0.024 | [4] -0.064 | saracatinib 0.178 | sotrastaurin 0.02

TMC7 (UniProt Q7Z402)
inactive: [3] -0.021 | [4] 0.06

TMEM147 (UniProt Q9BVK8)
inactive: [5] 0.069 | barasertib 0.003 | [1] -0.094 | volasertib -0.044 | [2] 0.028 | [3] -0.125 | [4] 0.04 | sotrastaurin 0.019

Remaining list, next part

TMEM134 (UniProt Q9H6X4)
inactive: [5] 0.08 | volasertib 0 | [2] -0.039 | [3] 0.048 | [4] 0.061 | saracatinib 0.099 | sotrastaurin -0.055

TMEM106C (UniProt Q9BVX2)
inactive: barasertib 0.196 | [1] 0.015

TICAM1 (UniProt Q8IUC6)
inactive: [5] 0.031 | barasertib -0.124 | volasertib -0.022 | [2] -0.072 | [3] -0.173 | [4] 0.149 | saracatinib 0.003 | sotrastaurin 0.036

THOC2 (UniProt H0Y7U4)
inactive: [5] 0.061 | barasertib -0.073 | volasertib -0.038 | [2] 0.123 | saracatinib 0.02 | sotrastaurin -0.202

TGFBR1 isoform 2 (UniProt P36897)
inactive: [1] -0.005
active: saracatinib 1.04

TLK2 isoform 3 (UniProt Q86UE8)
inactive: [3] 0.104 | [4] -0.036

TLNRD1 (UniProt Q9H1K6)
inactive: [5] -0.109 | barasertib -0.282 | volasertib -0.264 | [2] -0.262 | saracatinib 0.119 | sotrastaurin -0.084

THAP3 (UniProt Q8WTV1)
inactive: [2] 0.035 | sotrastaurin -0.036

TM2D3 (UniProt Q9BRN9)
active: [3] -0.934
inactive: barasertib -0.105 | [1] -0.079 | [2] 0.199 | [4] 0.444

TICRR (UniProt Q7Z2Z1)
inactive: saracatinib 0

THAP4 (UniProt Q8WY91)
inactive: [3] -0.207 | [4] -0.004

— the supplement of paper PMC10849652
